Results published in the supplement of paper PMC8104966.
Several values for one entry are separate records, joined by “and”; a condition that tells them apart may be missing. Identical values can stand only once. Some of the results follow. This data set is noisy: repeats of one test often differ as much as different tests do.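 U2OS cells expressing ACE2 were combined with U2OS cells expressing full-length spike, and imaging quantified fusion as the fraction of nuclei displaying both cell types' fluorescent markers. Non-toxic compounds with a fusion z-score under -3, i.e., over three standard deviations below the plate's DMSO wells, are called inhibitory hits.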

Tested on: U2OS ACE2 x SARS-CoV-2 spike co-culture
Assay: cell-cell fusion (fraction fused) z-score vs plate DMSO control; higher = more fusion
Conditions: 30 µM; 5 h; toxicity class: non-toxic, passed QC

| SMILES | cell-cell fusion (z-score) |
| --- | --- |
| CC(=O)Nc1cccc(O)c1 | inactive: 1.44 |
| CCN(CCO)CCCC(C)Nc1ccnc2cc(Cl)ccc12.O=S(=O)(O)O (stereo unspecified) | inactive: 3.15 |
| O=c1c(O)c(-c2ccc(O)c(O)c2)oc2cc(O)cc(O)c12 [Quercetin (Sophoretin)] | inactive: 2.16 |
| O=c1c(O)c(-c2ccc(O)c(O)c2)oc2cc(O)cc(O)c12 [Quercetin] | inactive: 1.62 |
| c1ccc2c(c1)cc1ccc3cccc4ccc2c1c34 | inactive: 0.626 |
| CN(CCOc1ccc(CC2SC(=O)NC2=O)cc1)c1ccccn1 (stereo unspecified) [Rosiglitazone (Avandia)] | inactive: 1.83 |
| CC(C)(C)Cn1c(N)nc2ccc(-c3[nH]c(C(C)(C)C)nc3-c3ccc(F)cc3)nc21.CS(=O)(=O)O.CS(=O)(=O)O | inactive: 3.2 |
| O=C([O-])P(=O)([O-])[O-].[Na+].[Na+].[Na+] [Foscarnet sodium] | inactive: 2.05 |
| Cn1nnc(-c2ccc(-c3ccc(N4C[C@H](COP(=O)(O)O)OC4=O)cc3F)cn2)n1 [Tedizolid Phosphate] | inactive: 1.11 |
| CC(C)N=c1cc2n(-c3ccc(Cl)cc3)c3ccccc3nc-2cc1Nc1ccc(Cl)cc1 [Clofazimine] | inactive: 3.96 |
| CCC1(c2ccc(N)cc2)CCC(=O)NC1=O (stereo unspecified) [Aminoglutethimide (Cytadren)] | inactive: 1.56 |
| CNC(=O)c1ccccc1Sc1ccc2c(/C=C/c3ccccn3)n[nH]c2c1 [Axitinib] | inactive: -1.25 |
| CON.Cl | inactive: 1.25 |
| CC(=O)N=c1sc(S(N)(=O)=O)nn1C [Methazolamide] | inactive: 1.07 |
| N#Cc1cc(NC(=O)C(=O)O)c(Cl)c(NC(=O)C(=O)O)c1 [Lodoxamide] | inactive: 0.921 |
| NS(=O)(=O)c1cc(C2(O)NC(=O)c3ccccc32)ccc1Cl (stereo unspecified) | inactive: 0.989 |
| O=C(NOCC1CC1)c1ccc(F)c(F)c1Nc1ccc(I)cc1Cl | inactive: -0.481 |
| CCN(CC)CCOC(=O)C(c1ccccc1)C1CCCCC1.Cl (stereo unspecified) | inactive: 2.7 |
| CCCCCC(=O)O[C@]1(C(C)=O)CCC2C3CCC4=CC(=O)CC[C@]4(C)C3CC[C@@]21C (stereo partly specified) | inactive: 1.14 |
| CC(C)(C)NCC(O)c1cc(O)cc(O)c1.O=S(=O)(O)O (stereo unspecified) | inactive: 2.62 |
| N=C1NCCN1CC(=O)O | inactive: 1.95 |
| COC1=C(OC)C(=O)c2ccccc2C1=O [2,3-Dimethoxy-1,4-naphthoquinone] | inactive: 2 |
| CCn1cc(C(=O)O)c(=O)c2cnc(N3CCNCC3)nc21.NCCO | inactive: 2.65 |
| Nc1nc(=O)c2c([nH]1)NCC(CNc1ccc(C(=O)N[C@@H](CCC(=O)[O-])C(=O)[O-])cc1)N2C=O.[Ca+2] (stereo partly specified) | inactive: 0.0965 |
| CCCCC[C@H](CC(=O)NO)C(=O)N[C@H](C(=O)N1CCC[C@H]1CO)C(C)C [Actinonin] | inactive: 0.117 |
| C#Cc1cccc(Nc2ncnc3cc(OCCOC)c(OCCOC)cc23)c1.Cl [Erlotinib hydrochloride] | inactive: 0.838 |

| SMILES | cell-cell fusion (z-score) |
| --- | --- |
| CN(C)c1cc(CNCC(C)(C)C)c(O)c2c1C[C@H]1C[C@H]3[C@H](N(C)C)C(O)=C(C(N)=O)C(=O)[C@@]3(O)C(O)=C1C2=O [Omadacycline] | inactive: 3.11 |
| COCCOc1cc2nc[nH]c(=O)c2cc1OCCOC | inactive: 1.01 |
| CNC(C)(C)Cc1ccccc1.O=S(=O)(O)O | inactive: 3.33 |
| CC1(C)S[C@@H]2[C@H](NC(=O)[C@@H](N)c3ccc(O)cc3)C(=O)N2[C@H]1C(=O)O | inactive: 1.7 |
| O=C1c2ccccc2C(=O)c2c(O)c(O)cc(O)c21 | inactive: 2.78 |
| CC1=C(C)C(=O)C(C(CCCCCC(=O)O)c2ccccc2)=C(C)C1=O (stereo unspecified) | inactive: 0.551 |
| Nc1ccc(CCNc2ncnc3c2ncn3C2OC(CO)C(O)C2O)cc1 (stereo unspecified) [N6-2-(4-Aminophenyl)ethyladenosine] | inactive: 0.209 |
| Cc1cc(NC(=O)Nc2ccc3c(ccn3C)c2)sn1 | inactive: 0.389 |
| CN1CCC[C@@H]1CCO[C@](C)(c1ccccc1)c1ccc(Cl)cc1.O=C(O)/C=C/C(=O)O [Clemastine fumarate] | inactive: -0.133 |
| Cl.O=C(O)Cc1cccc(OCCCN(Cc2cccc(C(F)(F)F)c2Cl)CC(c2ccccc2)c2ccccc2)c1 | inactive: -0.311 |
| C#C[C@]1(O)CC[C@H]2[C@@H]3CCc4cc(OC)ccc4[C@H]3CC[C@@]21C [Mestranol] | inactive: 1.88 |
| CCc1nc(N)nc(N)c1-c1ccc(Cl)cc1 [Pyrimethamine] | inactive: 1.45 |
| Clc1ccc(C(c2ccccc2Cl)C(Cl)Cl)cc1 (stereo unspecified) [Mitotan] | inactive: 2.95 |
| CCOc1ccc(Cc2cc([C@@H]3O[C@H](CO)[C@@H](O)[C@H](O)[C@@H]3O)ccc2Cl)cc1 [Dapagliflozin] | inactive: 0.311 |
| O=P(O)(O)C(O)(Cc1cccnc1)P(=O)(O)O [Risedronic Acid] | inactive: 3.05 |
| OCCc1ccccc1 | inactive: 2.8 |
| C[C@H](Cn1cnc2c(N)ncnc21)OCP(=O)(O)O [Tenofovir] | inactive: 0.991 |
| CN(c1ccccc1CNc1nc(Nc2ccc3c(c2)CC(=O)N3)ncc1C(F)(F)F)S(C)(=O)=O.O | active: -3.72 |
| C#CC(C)(O)CC (stereo unspecified) | inactive: 1.8 |
| O=C(O)CN1C(=O)c2cccc3cccc(c23)C1=O | inactive: 1.66 |
| COc1cc2ncnc(Nc3ccc(F)c(Cl)c3)c2cc1NC(=O)/C=C/CN1CCCCC1 | inactive: -1.19 and inactive: -0.134 |
| COc1cc(CC(=O)O)ccc1O [4-Hydroxy-3-methoxyphenylacetic acid] | inactive: 2.32 |
| CC(C)NCC(O)c1ccc(NS(C)(=O)=O)cc1.Cl (stereo unspecified) [Sotalol hydrochloride] | inactive: 2.68 |
| O=C1CCC[C@H]2[C@@H]3CCC[N+]4([O-])CCC[C@H](CN12)[C@H]34 (stereo partly specified) | inactive: 1.75 |
| C/C(O)=C(\C#N)C(=O)Nc1ccc(C(F)(F)F)cc1 [Teriflunomide] | inactive: 3.23 |
| Br.C=CCN1CCc2c(cc(O)c(O)c2Cl)C(c2ccccc2)C1 (racemic) [(±)-Chloro-APB hydrobromide] | inactive: 1.2 |

| SMILES | cell-cell fusion (z-score) |
| --- | --- |
| CO[C@H]1/C=C/O[C@@]2(C)Oc3c(C)c(O)c4c(O)c(c(/C=N/N5CCN(C6CCCC6)CC5)c(O)c4c3C2=O)NC(=O)/C(C)=C\C=C\[C@H](C)[C@H](O)[C@@H](C)[C@@H](O)[C@@H](C)[C@H](OC(C)=O)[C@@H]1C [Rifapentine] | active: -7 |
| COc1ccc(OC)c(C(O)C(C)N)c1.Cl (stereo unspecified) [Methoxamine hydrochloride] | inactive: 3.04 |
| COc1ccc(OC)c(C(O)C(C)N)c1.Cl (stereo unspecified) | inactive: 1.09 |
| Oc1cccc2[nH]ccc12 | inactive: 2.21 |
| CCOC(=O)[C@H](CC(C)C)NC(=O)[C@@H](NC(=O)[C@H](Cc1c[nH]c2ccccc12)NC(=O)[C@@H]1CCCN1C(=O)[C@H](CCCCN)NC[C@@H](N)CCCCN)C(C)(C)C.Cl.Cl.Cl.Cl.O | inactive: 2.53 |
| NC(COCc1ccccc1)C(=O)O (stereo unspecified) | inactive: 1.59 |
| CC1(O)CCC(C(C)(C)O)CC1.O (stereo unspecified) | inactive: 2.04 |
| CCC(=O)NCC[C@@H]1CCc2ccc3c(c21)CCO3 | inactive: 2.11 |
| CCN(CC)C(=S)SSC(=S)N(CC)CC [Disulfiram (Antabuse)] | inactive: 1.12 |
| O=C(NCc1c(F)cc(F)cc1F)c1cn2c(c(O)c1=O)C(=O)N1[C@H]3CC[C@H](C3)O[C@@H]1C2 [Bictegravir] | inactive: 2.81 |
| NC(=O)NO | inactive: 0.421 |
| NC(=O)NO [Hydroxyurea] | inactive: 2.78 |
| CCC(C)N(C)C(=O)c1cc2ccccc2c(-c2ccccc2Cl)n1 (stereo unspecified) | inactive: 2.94 |
| Cn1cnc(N)c2ncnc1-2 [3-Methyladenine] | inactive: 1.45 |
| CC(O)c1cc(C(=O)N[C@@H](C)Cn2ccc(-c3ccc(C#N)c(Cl)c3)n2)n[nH]1 (stereo partly specified) [Darolutamide] | inactive: 1.27 |
| CN(Cc1cc(Br)cc(Br)c1N)C1CCCCC1.Cl | inactive: 3.17 |
| CCCN(CCC)C1Cc2cc(OC)c(OC)cc2C1.O=C(O)/C=C\C(=O)O | inactive: 2.16 |
| Cl.NC(N)=N/C(N)=N/CCc1ccccc1 | inactive: 2.35 |
| CC(C)(C)CC(C)(C)c1cc(Cc2cc(C(C)(C)CC(C)(C)C)cc(-n3nc4ccccc4n3)c2O)c(O)c(-n2nc3ccccc3n2)c1.NCCO.NCCO | inactive: 0.285 |
| Cc1[nH]c(=O)c(C#N)cc1-c1ccncc1 [Milrinone] | inactive: 2.31 |
| Cc1[nH]c(=O)c(C#N)cc1-c1ccncc1 | inactive: 3.24 |
| C[C@]1(O)C[C@@H](c2nc(-c3ccc4ccc(-c5ccccc5)nc4c3)c3c(N)nccn32)C1 [Linsitinib (OSI-906)] | inactive: 2.57 |
| C[C@]1(O)C[C@@H](c2nc(-c3ccc4ccc(-c5ccccc5)nc4c3)c3c(N)nccn32)C1 [OSI-906 (Linsitinib)] | inactive: 2.79 |
| NCCC(O)(P(=O)([O-])O)P(=O)([O-])O.[Na+].[Na+] [Pamidronate disodium salt] | inactive: 2.99 |
